Experimental data from patent EP2301956A1, “Methods for prognosticating progression or long term non-progression of a HIV infection or HIV-associated disorders in a patient” (Institut Pasteur, priority 2009, dated 2011).
“Also recorded” adds a separate entry of the source. Part of at least one peptide drawing is inferred or uncertain, most often the ends. Some entries repeat one wording, which the source may state once for all of them. Residues, ends and D or L forms follow the SMILES beside them. *: point of attachment. Biotin = O=C1N[C@H]2[C@H](CS[C@H]2CCCCC(=O)*)N1

Columns and labels:
HeLa cells [1] = assay: Quantification of peptide internalization: intracellular delivery of streptavidin-peroxydase (OPD colorimetric test); format: cell-based; details: 6 hrs at 37°C, OPD (figure 2B)
HeLa cells [2] = assay: Cellular localization of biotinylated peptides (DAB colorimetric test, microscopy); format: cell-based; details: 150 µM peptide, 2 hrs at 37° C, DAB (figure 2A); for intracellular localization: HeLa cells
HeLa cells [3] = assay: Apoptosis by in situ detection of fragmented DNA (TUNEL); format: cell-based; details: HeLa cells (figure 3)
Jurkat cells [4] = assay: Annexin-V assay, flow cytometry; format: cell-based; details: non-adherent Jurkat cells, 3 h (Fig.3C upper panel)
Jurkat cells [5] = assay: Mitochondrial membrane potential (DiOC6(3)), flow cytometry; format: cell-based; details: DiOC6 (Fig.3C lower panel)
PP2A1 = assay: Pull down assay of biotinylated peptides with PP2A1 in HeLa cell extracts; format: binding; details: peptide 100 µM, immunoblotting with PP2A1 antibodies (figure 1)
SK-N-SH cells = assay: Apoptosis by in situ detection of fragmented DNA (TUNEL); format: cell-based; details: SK-N-SH cells (figure 3)

CC[C@H](C)[C@H](NC(=O)CNC(=O)[C@@H](NC(=O)[C@H](CCCNC(=N)N)NC(=O)[C@H](CO)NC(=O)[C@H](Cc1c[nH]cn1)NC(=O)[C@H](CCCNC(=N)N)NC(=O)CCCC[C@@H]1SC[C@@H]2NC(=O)N[C@@H]21)[C@@H](C)CC)C(=O)N[C@H](C(=O)N[C@@H](CCC(N)=O)C(=O)N[C@@H](CCC(N)=O)C(=O)N[C@@H](CCCNC(=N)N)C(=O)N[C@@H](CCCNC(=N)N)C(=O)N[C@H](C(=O)N[C@@H](CCCNC(=N)N)C(=O)N[C@@H](CC(N)=O)C(=O)NCC(=O)O)[C@@H](C)O)[C@@H](C)CC [DPT-Vpr1]
fold more efficient to internalize streptavidin-HRP conjugated molecules than TAT-peptide (HeLa cells [1]): 10.6 fold
penetration into HeLa cells (HeLa cells [2]): penetrate into HeLa cells
intracellular localization (HeLa cells [2]): only localized in the cytoplasm
apoptosis (TUNEL) (HeLa cells [3]): strong apoptosis
apoptosis (Annexin V) (Jurkat cells [4]): induced apoptosis
decrease in mitochondrial membrane potential (Δψm) (Jurkat cells [5]): induced a decrease
co-precipitation of PP2A1 from HeLa cell extracts (PP2A1): can co-precipitate PP2A1
apoptosis (TUNEL) (SK-N-SH cells): strong apoptosis

CC[C@H](C)[C@H](NC(=O)CNC(=O)[C@@H](NC(=O)[C@H](C)NC(=O)[C@H](CO)NC(=O)[C@H](Cc1c[nH]cn1)NC(=O)[C@H](C)NC(=O)CCCC[C@@H]1SC[C@@H]2NC(=O)N[C@@H]21)[C@@H](C)CC)C(=O)N[C@H](C(=O)N[C@@H](CCC(N)=O)C(=O)N[C@@H](CCC(N)=O)C(=O)N[C@@H](CCCNC(=N)N)C(=O)N[C@@H](CCCNC(=N)N)C(=O)N[C@H](C(=O)N[C@@H](CCCNC(=N)N)C(=O)N[C@@H](CC(N)=O)C(=O)NCC(=O)O)[C@@H](C)O)[C@@H](C)CC [DPT-Vpr3] (Biotin-AHSAIGIIQQRRTRNG-OH)
fold more efficient to internalize streptavidin-HRP conjugated molecules than TAT-peptide (HeLa cells [1]): 28.7 fold
penetration into HeLa cells (HeLa cells [2]): penetrate into HeLa cells; also recorded: remain unaffected
intracellular localization (HeLa cells [2]): only localized in the cytoplasm
apoptosis (TUNEL) (HeLa cells [3]): strong apoptosis
apoptosis (Annexin V) (Jurkat cells [4]): induced apoptosis
decrease in mitochondrial membrane potential (Δψm) (Jurkat cells [5]): induced a decrease
co-precipitation of PP2A1 from HeLa cell extracts (PP2A1): can co-precipitate PP2A1; also recorded: remain unaffected
apoptosis (TUNEL) (SK-N-SH cells): strong apoptosis

CC[C@H](C)[C@H](NC(=O)[C@H](CCCNC(=N)N)NC(=O)[C@H](Cc1ccccc1)NC(=O)[C@H](Cc1c[nH]cn1)NC(=O)CCCC[C@@H]1SC[C@@H]2NC(=O)N[C@@H]21)C(=O)NCC(=O)N[C@@H](CS)C(=O)N[C@@H](CCCNC(=N)N)C(=O)N[C@@H](Cc1c[nH]cn1)C(=O)N[C@@H](CO)C(=O)N[C@@H](CCCNC(=N)N)C(=O)N[C@H](C(=O)NCC(=O)N[C@H](C(=O)N[C@H](C(=O)N[C@@H](CCCNC(=N)N)C(=O)N[C@@H](CCC(N)=O)C(=O)N[C@@H](CCCNC(=N)N)C(=O)N[C@@H](CCCNC(=N)N)C(=O)N[C@@H](C)C(=O)N[C@@H](CCCNC(=N)N)C(=O)N[C@@H](CC(N)=O)C(=O)NCC(=O)N[C@@H](C)C(=O)N[C@@H](CO)C(=O)N[C@@H](CCCNC(=N)N)C(=O)N[C@@H](CO)C(=O)O)[C@@H](C)O)C(C)C)[C@@H](C)CC [Vpr71-96, reference compound]
decrease in mitochondrial membrane potential (Δψm) (Jurkat cells [5]): induced a decrease
